Measurements reported in the supplement of paper PMC12819154, “High-throughput peptide-centric local stability assay extends protein–ligand identification to membrane proteins, tissues and bacteria” (Nature Structural & Molecular Biology, 2025).
The list shows a part of the results. Most values lie at the level of the controls, where differences are scatter.

Protein sequences, listed by entry. Tags and fused reporters are not part of them. Lines headed by an entry give the natural chain unless they say otherwise; changes in a name come on top.
UniProt Q9CR86: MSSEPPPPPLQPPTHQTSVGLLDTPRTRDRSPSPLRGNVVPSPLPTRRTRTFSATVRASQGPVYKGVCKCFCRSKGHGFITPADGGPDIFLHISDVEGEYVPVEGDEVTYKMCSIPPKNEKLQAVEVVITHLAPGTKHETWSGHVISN
UniProt Q9CX56: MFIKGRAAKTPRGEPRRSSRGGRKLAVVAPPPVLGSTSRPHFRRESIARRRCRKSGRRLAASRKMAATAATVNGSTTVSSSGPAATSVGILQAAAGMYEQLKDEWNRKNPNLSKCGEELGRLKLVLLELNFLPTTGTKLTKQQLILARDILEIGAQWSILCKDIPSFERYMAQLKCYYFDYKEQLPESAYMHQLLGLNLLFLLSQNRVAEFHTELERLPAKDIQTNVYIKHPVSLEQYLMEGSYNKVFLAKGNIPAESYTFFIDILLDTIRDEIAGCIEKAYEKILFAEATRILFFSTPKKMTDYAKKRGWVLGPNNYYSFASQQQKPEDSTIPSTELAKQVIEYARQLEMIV
UniProt Q9CZ62: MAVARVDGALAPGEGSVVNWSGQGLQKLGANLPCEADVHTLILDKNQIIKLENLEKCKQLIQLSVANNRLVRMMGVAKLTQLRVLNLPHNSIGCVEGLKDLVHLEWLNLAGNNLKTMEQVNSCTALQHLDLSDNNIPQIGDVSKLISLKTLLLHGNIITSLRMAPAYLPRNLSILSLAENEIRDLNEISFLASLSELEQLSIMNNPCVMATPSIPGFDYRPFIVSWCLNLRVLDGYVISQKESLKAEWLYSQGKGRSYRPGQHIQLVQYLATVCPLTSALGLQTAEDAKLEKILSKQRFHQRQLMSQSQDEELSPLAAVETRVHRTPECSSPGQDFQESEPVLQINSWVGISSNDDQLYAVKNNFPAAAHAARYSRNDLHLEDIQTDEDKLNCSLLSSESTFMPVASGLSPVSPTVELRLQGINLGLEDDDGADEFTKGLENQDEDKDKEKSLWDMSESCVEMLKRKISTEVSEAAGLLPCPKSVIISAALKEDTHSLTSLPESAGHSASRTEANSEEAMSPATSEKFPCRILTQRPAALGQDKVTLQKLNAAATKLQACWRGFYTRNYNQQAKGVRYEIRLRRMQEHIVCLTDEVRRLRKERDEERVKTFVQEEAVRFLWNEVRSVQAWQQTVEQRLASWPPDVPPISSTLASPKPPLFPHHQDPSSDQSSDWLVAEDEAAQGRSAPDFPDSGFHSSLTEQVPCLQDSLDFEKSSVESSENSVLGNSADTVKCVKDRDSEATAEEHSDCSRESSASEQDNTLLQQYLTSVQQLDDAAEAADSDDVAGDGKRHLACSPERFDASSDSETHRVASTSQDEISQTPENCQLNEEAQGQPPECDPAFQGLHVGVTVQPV
UniProt Q9CXJ4: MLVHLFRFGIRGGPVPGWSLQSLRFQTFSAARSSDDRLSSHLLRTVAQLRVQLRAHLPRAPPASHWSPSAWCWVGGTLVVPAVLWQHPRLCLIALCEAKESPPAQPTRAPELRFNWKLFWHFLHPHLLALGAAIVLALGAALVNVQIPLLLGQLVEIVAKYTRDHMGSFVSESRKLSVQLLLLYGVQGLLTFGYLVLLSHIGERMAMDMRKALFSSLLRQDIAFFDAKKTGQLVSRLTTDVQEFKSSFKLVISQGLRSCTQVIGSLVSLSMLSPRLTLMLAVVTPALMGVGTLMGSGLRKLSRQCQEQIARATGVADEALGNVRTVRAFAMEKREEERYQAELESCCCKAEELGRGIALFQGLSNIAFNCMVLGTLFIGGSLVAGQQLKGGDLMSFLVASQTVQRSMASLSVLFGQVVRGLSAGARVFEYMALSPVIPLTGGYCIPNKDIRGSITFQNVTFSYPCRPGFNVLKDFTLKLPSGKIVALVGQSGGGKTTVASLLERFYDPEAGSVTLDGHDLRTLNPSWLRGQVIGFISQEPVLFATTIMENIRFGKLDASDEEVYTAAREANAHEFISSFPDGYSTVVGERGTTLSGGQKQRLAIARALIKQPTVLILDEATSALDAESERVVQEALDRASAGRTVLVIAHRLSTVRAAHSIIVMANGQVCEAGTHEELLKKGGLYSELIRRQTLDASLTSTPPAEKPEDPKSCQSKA
UniProt Q9CR84: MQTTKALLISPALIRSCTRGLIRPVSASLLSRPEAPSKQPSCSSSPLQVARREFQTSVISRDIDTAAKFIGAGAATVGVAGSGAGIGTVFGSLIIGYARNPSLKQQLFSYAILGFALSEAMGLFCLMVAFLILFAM
UniProt Q9D011: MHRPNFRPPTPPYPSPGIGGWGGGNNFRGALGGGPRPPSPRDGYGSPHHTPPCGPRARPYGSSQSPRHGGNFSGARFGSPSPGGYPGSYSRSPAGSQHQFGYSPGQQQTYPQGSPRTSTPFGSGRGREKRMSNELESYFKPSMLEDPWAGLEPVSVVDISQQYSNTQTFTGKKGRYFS
UniProt Q9CW79: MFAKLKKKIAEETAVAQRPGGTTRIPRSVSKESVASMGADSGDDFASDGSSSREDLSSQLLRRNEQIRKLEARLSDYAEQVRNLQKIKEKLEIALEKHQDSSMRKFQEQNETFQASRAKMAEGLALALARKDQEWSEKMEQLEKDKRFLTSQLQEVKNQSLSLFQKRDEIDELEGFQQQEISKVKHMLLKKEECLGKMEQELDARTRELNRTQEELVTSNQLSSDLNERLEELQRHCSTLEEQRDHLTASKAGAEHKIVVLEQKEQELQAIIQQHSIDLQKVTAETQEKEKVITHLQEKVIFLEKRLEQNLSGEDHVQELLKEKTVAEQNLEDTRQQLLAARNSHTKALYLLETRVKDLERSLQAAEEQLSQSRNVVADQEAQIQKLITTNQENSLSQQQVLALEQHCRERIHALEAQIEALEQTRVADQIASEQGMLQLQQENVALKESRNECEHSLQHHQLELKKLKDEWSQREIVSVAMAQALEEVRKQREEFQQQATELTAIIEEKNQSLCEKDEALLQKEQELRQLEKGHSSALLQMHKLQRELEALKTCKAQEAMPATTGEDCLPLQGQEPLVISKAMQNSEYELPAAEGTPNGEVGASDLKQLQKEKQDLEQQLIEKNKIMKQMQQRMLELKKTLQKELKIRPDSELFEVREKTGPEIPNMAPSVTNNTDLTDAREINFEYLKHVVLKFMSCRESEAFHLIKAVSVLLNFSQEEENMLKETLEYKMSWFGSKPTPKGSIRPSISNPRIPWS
UniProt Q9CWS0: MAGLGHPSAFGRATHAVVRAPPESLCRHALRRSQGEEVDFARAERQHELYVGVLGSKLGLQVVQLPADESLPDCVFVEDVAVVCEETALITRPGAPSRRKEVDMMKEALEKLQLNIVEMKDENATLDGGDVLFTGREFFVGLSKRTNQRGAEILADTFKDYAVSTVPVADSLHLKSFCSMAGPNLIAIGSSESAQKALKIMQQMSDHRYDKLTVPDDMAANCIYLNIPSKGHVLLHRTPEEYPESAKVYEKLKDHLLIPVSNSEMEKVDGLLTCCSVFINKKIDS
UniProt Q9D024: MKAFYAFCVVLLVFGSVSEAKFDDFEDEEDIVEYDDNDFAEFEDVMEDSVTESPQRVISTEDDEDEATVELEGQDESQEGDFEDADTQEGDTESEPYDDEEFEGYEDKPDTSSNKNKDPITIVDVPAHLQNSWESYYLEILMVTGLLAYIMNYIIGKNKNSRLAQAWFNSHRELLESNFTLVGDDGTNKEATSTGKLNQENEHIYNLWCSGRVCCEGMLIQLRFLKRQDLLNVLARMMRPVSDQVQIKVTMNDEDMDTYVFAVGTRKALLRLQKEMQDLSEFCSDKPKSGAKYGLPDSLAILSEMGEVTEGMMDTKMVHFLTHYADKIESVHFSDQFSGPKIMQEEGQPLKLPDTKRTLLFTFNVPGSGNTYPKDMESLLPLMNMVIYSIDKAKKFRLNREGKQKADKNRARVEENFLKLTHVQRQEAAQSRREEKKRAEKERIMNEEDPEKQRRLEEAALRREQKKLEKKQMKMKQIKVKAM
UniProt Q9D061: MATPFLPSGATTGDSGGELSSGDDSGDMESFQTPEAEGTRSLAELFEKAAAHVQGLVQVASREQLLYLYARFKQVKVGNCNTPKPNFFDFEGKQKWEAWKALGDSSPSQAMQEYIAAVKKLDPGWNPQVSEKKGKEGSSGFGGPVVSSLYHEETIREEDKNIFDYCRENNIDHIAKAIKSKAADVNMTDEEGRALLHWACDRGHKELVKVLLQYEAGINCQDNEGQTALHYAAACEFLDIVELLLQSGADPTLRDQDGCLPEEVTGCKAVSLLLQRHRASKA
UniProt Q9CZD0: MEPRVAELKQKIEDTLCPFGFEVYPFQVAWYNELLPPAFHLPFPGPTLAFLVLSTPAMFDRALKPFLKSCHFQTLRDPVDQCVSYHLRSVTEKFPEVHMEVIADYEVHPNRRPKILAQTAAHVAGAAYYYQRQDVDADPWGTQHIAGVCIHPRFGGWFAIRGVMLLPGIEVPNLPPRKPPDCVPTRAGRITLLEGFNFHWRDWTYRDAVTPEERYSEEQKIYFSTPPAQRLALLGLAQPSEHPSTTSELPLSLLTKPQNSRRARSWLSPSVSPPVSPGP
UniProt Q9CRC8: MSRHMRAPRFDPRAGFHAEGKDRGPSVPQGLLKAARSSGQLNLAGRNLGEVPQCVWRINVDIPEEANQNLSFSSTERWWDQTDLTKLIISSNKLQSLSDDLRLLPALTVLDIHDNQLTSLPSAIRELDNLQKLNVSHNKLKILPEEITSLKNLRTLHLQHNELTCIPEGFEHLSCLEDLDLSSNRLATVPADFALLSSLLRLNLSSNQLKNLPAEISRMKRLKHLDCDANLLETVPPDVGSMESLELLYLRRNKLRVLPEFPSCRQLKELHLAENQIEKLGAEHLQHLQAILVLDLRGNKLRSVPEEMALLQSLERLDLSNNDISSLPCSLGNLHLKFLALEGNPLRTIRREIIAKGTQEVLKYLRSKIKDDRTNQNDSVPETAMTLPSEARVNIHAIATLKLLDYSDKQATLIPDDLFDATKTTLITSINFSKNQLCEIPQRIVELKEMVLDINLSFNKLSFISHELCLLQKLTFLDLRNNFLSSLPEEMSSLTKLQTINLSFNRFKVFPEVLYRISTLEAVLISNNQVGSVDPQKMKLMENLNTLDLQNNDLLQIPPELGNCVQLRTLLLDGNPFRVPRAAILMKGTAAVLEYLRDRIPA
UniProt Q9CXN7: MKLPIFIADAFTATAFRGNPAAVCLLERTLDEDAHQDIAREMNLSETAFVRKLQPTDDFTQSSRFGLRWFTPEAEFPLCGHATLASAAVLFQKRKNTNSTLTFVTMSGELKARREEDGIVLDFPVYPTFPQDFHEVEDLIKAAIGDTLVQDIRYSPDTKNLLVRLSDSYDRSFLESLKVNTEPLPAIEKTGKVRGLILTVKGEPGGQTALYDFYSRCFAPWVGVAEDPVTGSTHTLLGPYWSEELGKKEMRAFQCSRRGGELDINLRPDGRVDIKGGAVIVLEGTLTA
UniProt Q9D0Z3: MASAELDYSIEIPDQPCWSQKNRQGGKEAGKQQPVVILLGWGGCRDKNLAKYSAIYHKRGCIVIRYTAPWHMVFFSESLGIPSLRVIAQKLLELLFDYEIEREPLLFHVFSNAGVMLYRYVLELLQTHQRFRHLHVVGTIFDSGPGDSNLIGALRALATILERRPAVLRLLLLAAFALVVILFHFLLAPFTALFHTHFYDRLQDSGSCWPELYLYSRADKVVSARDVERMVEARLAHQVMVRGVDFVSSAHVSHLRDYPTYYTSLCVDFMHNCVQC
UniProt Q9D113: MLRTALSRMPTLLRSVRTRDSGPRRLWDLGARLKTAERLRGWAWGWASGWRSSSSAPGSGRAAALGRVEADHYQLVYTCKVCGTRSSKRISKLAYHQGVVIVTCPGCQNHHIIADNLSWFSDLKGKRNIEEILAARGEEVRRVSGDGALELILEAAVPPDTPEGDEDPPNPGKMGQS
UniProt Q9CYR0: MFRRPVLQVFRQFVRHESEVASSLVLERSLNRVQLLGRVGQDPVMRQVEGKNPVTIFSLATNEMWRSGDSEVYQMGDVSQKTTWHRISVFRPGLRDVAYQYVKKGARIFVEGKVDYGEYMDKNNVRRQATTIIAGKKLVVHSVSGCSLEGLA
UniProt Q9CZL5: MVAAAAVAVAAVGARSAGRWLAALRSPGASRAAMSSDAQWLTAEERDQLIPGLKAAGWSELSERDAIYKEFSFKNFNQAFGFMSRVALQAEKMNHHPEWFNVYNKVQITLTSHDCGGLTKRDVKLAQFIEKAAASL
UniProt Q9CZP5: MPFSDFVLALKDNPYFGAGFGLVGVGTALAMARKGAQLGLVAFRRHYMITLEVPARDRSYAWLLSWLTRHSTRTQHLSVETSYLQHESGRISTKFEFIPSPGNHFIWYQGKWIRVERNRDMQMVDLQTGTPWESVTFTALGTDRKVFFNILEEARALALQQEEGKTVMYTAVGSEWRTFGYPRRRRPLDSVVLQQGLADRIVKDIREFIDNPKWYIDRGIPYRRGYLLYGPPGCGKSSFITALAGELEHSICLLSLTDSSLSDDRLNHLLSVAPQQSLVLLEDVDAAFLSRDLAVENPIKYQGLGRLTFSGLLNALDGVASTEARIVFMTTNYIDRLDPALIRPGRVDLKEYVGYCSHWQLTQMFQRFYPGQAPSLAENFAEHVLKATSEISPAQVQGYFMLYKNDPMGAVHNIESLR

compound: CN[C@@H]1C[C@H]2O[C@@](C)([C@@H]1OC)n1c3ccccc3c3c4c(c5c6ccccc6n2c5c31)C(=O)NC4 [staurosporine]; assay: log2 fold change of tryptic peptide abundance, ligand vs vehicle (limited proteolysis) (log2 ratio); higher = more trypsin-susceptible (destabilized); details: ligand concentration: 20 uM; sample: mouse liver crude lysate; replicate design: treated separately

| Target | log2 fold change |
| --- | --- |
| UniProt Q9D0A0 (peptide sequence: NSESVTPNPR, peptide start residue: 176) | 0.395 |
| UniProt Q9CWH5 (peptide sequence: SIFELWGHGK, peptide start residue: 72) | 0.224 |
| UniProt Q9D071 (peptide sequence: ETLPLLLQHLCQANK, peptide start residue: 572) | 0.303 |
| UniProt Q9CRA7 (peptide sequence: DKEYLAQVFK, peptide start residue: 178) | -0.862 |
| UniProt Q9CR86 (peptide sequence: DRSPSPLR, peptide start residue: 29) | -0.139 |
| UniProt Q9CX56 (peptide sequence: ILFFSTPK, peptide start residue: 293) | -0.605 |
| UniProt Q9CW07 (peptide sequence: GAALPEQEELQEYRR, peptide start residue: 60) | 0.159 |
| UniProt Q9D0L4 (peptide sequence: VLHSQAPQSSMQEVR, peptide start residue: 117) | -0.645 |
| UniProt Q9CZ62 (peptide sequence: FDASSDSETHR, peptide start residue: 801) | -0.476 |
| UniProt Q9CXJ4 (peptide sequence: FGKLDASDEEVYTAAR, peptide start residue: 553) | -0.474 |
| UniProt Q9CR84 (peptide sequence: ALLISPALIR, peptide start residue: 6) | 0.131 |
| UniProt Q9D011 (peptide sequence: DGYGSPHHTPPCGPR, peptide start residue: 42) | 0.129 |
| UniProt Q9CW79 (peptide sequence: NQSLSLFQK, peptide start residue: 158) | -0.131 |
| UniProt Q9CWS0 (peptide sequence: QHELYVGVLGSK, peptide start residue: 46) | -0.152 |
| UniProt Q9D0K1 (peptide sequence: AGDMLNLALKEQQPK, peptide start residue: 297) | -0.132 |
| UniProt Q9CSN1 (peptide sequence: NLDKDMYGDDLEAR, peptide start residue: 453) | -0.171 |
| UniProt Q9D024 (peptide sequence: IMNEEDPEK, peptide start residue: 444) | 0.144 |
| UniProt Q9CWT6 (peptide sequence: HLLCAAETGSGK, peptide start residue: 167) | 0.177 |

Looked up above:
log2 fold change, UniProt Q9D0K1 (peptide sequence: AGDMLNLALKEQQPK, peptide start residue: 297) is entered as -0.132
log2 fold change, UniProt Q9D024 (peptide sequence: IMNEEDPEK, peptide start residue: 444) is entered as 0.144

The results go on:

| Target | log2 fold change |
| --- | --- |
| UniProt Q9CZ96 (peptide sequence: IEEEQSK, peptide start residue: 178) | -0.236 |
| UniProt Q9D061 (peptide sequence: KLDPGWNPQVSEK, peptide start residue: 120) | 0.295 |
| UniProt Q9CZD0 (peptide sequence: DAVTPEER, peptide start residue: 207) | 0.0475 |
| UniProt Q9CZV8 (peptide sequence: GCLGVGDNALR, peptide start residue: 100) | -0.257 |
| UniProt Q9CRC8 (peptide sequence: VLPEFPSCR, peptide start residue: 257) | 0.078 |
| UniProt Q9CXN7 (peptide sequence: RGGELDINLRPDGR, peptide start residue: 258) | -0.254 |
| UniProt Q9D0Z3 (peptide sequence: LAHQVMVR, peptide start residue: 235) | 0.164 |
| UniProt Q9CYP7 (peptide sequence: LYSDIGHLLDEK, peptide start residue: 367) | 0.166 |
| UniProt Q9CR58 (peptide sequence: GMLHALMR, peptide start residue: 51) | 0.318 |
| UniProt Q9D113 (peptide sequence: VEADHYQLVYTCK, peptide start residue: 68) | -0.0234 |
| UniProt Q9CR57 (peptide sequence: CMQLTDFILKFPHSAR, peptide start residue: 54) | 0.146 |
| UniProt Q9D0Q7 (peptide sequence: IVPAWAPPKQPILK, peptide start residue: 265) | 0.238 |
| UniProt Q9CX99 (peptide sequence: QIFLCDEQPLIKPSR, peptide start residue: 145) | -0.234 |
| UniProt Q9CYR0 (peptide sequence: DVAYQYVKK, peptide start residue: 96) | -0.532 |
| UniProt Q9CZL5 (peptide sequence: AAGWSELSER, peptide start residue: 55) | -0.182 |
| UniProt Q9CZP5 (peptide sequence: EFIDNPK, peptide start residue: 207) | -0.335 |
| UniProt Q9CXT7 (peptide sequence: LLELATQPART, peptide start residue: 256) | 0.0969 |
